Results published in PMC3161067, “Combined SAXS/EM Based Models of the S. elongatus Post-Translational Circadian Oscillator and its Interactions with the Output His-Kinase SasA” (PLoS ONE, 2011).
No constants are given. Whether binding was seen depends on the method and setting. A result given as binding can be weak or reduced; the word gives no strength. For some assays here: Tags and fused reporters may be left off the sequences shown.

B1: N-terminal KaiA domain (domain or fragment, UniProt Q79PF6 2-284)
chain: LSQIAICIWVESTAILQDCQRALSADRYQLQVCESGEMLLEYAQTHRDQIDCLILVAANPSFRAVVQQLCFEGVVVPAIVVGDRDSEDPDEPAKEQLYHSAELHLGIHQLEQLPYQVDAALAEFLRLAPVETMADHIMLMGANHDPELSSQQRDLAQRLQERLGYLGVYYKRDPDRFLRNLPAYESQKLHQAMQTSYREIVLSYFSPNSNLNQSIDNFVNMAFFADVPVTKVVEIHMELMDEFAKKLRVEGRSEDILLDYRLTLIDVIAHLCEMYRRSIPRET
B2: SasA (S. elongatus His kinase) (natural protein, UniProt Q06904 1-387, looked up)
chain: MGESLSPQALAQPLLLQLFVDTRPLSQHIVQRVKNILAAVEATVPISLQVINVADQPQLVEYYRLVVTPALVKIGPGSRQVLSGIDLTDQLANQLPQWLVQQEAFFADREPPEVNIPFTELGQPETPALQQADAFFQLQQQYADLSERTKFLEQVIALVAHDLRNPLTAALLAVDTIQIRSQSFSVATAKEMQGLCSLFDQARSQLREIERMIAEILEATRHSGESLRINPREVVFEPLLQQVLEQLHERWRSKQQQLITDVPGDLPTLYADPDRLRQVLVNLLDNAIKYTPPGGTITIAALHRTSQKVQISISDTGSGIPRDQLSVIFKNLVRLSRDSSQEGYGIGLSVCQRIVQAHFGRIWVASELGQGSTFHFTMPVYRYTMPC
notes: SasA, adaptive-response sensory His kinase, Synechococcus elongatus; N-terminal sensory domain is residues 1-97; its expression and purification are not described; also called full-length SasA; wt SasA

Key:
[1] = target: KaiB/ΔKaiC binary complex (S. elongatus); experiment: native gel or EMSA; native PAGE band shift, PhastSystem, PhastGel Gradient 4-15% or 8-25%, Coomassie stain; both purified
[2] = target: C-terminally truncated KaiC, KaiC-Δ489 (S. elongatus); experiment: negative-stain EM; mixture of KaiC-Δ489, wt KaiB and wt SasA; 6,013 particles in 25 class averages; both purified

Binder	binding [1]	binding [2]
B1	binds	–
B2	–	binds
